PubChem BioAssay AID686937 – Drosophila RNAi Screening Center, 2013
In all, the deposit lists about 23,000 reagents; shown is an unselected part of those with a known target gene and a result. 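Reduced-secretion tags in replicate 1 do not always agree with the z-scores; no criterion for assigning the tags was given.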 Not given: the amount of reagent.

Assay: 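Genes in the fly needed for secretion of protein constitutively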 (primary screen)
System: Drosophila S2 cells expressing secreted horseradish peroxidase
Reagent: long dsRNA against Drosophila genes
Timing: about 5.5 days (5 days dsRNA, then 12 h reporter induction)
Conditions: reporter expression induced after 5 days of dsRNA, read 12 h later; inducer not stated
Measured: 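After 5 days of dsRNA and 12 h of reporter induction, medium peroxidase read by chemiluminescence and scored as per-plate z-score; higher values mean more reporter released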
Reading the numbers: z-score: higher = more reporter secreted into medium

The opening 6 entries, ahead of the listing:
gene	DRSC id	z-score, replicate 1	z-score, replicate 2	z-score, replicate 3	z-score, replicate 4	phenotype, replicate 1
jbug (GeneID 43997)	DRSC03952	0.01	0.13			
jbug (GeneID 43997)	DRSC04114	0.08	0.41			
jbug (GeneID 43997)	DRSC04167	-0.41	0.15			
jbug (GeneID 43997)	DRSC04388	0.41	0.35			
Tsp42Er (GeneID 35629)	DRSC06183	0.43	0.34			
HmgZ (GeneID 37480)	DRSC03888	-0.29	0.09			

Main list, repeating the preview:
gene	DRSC id	z-score, replicate 1	z-score, replicate 2	z-score, replicate 3	z-score, replicate 4	phenotype, replicate 1
jbug (GeneID 43997)	DRSC03952	0.01	0.13			
jbug (GeneID 43997)	DRSC04114	0.08	0.41			
jbug (GeneID 43997)	DRSC04167	-0.41	0.15			
jbug (GeneID 43997)	DRSC04388	0.41	0.35			
Tsp42Er (GeneID 35629)	DRSC06183	0.43	0.34			
HmgZ (GeneID 37480)	DRSC03888	-0.29	0.09			
HmgZ (GeneID 37480)	DRSC04620	0.01	-0.43	0.81	1.54	
Lk6 (GeneID 44672)	DRSC12867	-0.12	0.22			
Lk6 (GeneID 44672)	DRSC16728	-0.09	0.05			
CG32548 (GeneID 32826)	DRSC19627	-0.08	-0.66			
CG32548 (GeneID 32826)	DRSC19982	0.1	0.12			
CG14958 (GeneID 38387)	DRSC08417	-0.25	-0.09			
CG12679 (GeneID 33031)	DRSC20493	0.31	0.23			
dpr2 (GeneID 3346227)	DRSC02370	0.3	0.12			
dpr2 (GeneID 3346227)	DRSC02371	-0.09	-0.17			
sad (GeneID 44858)	DRSC16630	0.28	0.73			
CG6686 (GeneID 34608)	DRSC02979	-2.43	-0.93			reduced secretion
mRpS33 (GeneID 41991)	DRSC14239	-0.03	-0.55			
CG12990 (GeneID 32747)	DRSC19510	0.19	0.35			
CG11839 (GeneID 43006)	DRSC14398	0.4	0.41			
e (GeneID 42521)	DRSC16936	0.1	0.29			
mol (GeneID 34872)	DRSC01431	-1.58	0.86	-0.9	0.61	reduced secretion
mol (GeneID 34872)	DRSC01912	0.49	0.46			
mol (GeneID 34872)	DRSC02479	-9.56	-0.02			reduced secretion
Rpn12R (GeneID 2768973)	DRSC09842	0.44	0.24			
GlcAT-P (GeneID 39262)	DRSC10603	0.05	0.26			
GlcAT-P (GeneID 39262)	DRSC10604	-0.05	0.1			
Ripalpha (GeneID 34351)	DRSC02657	0.08	0.25			
Elp3 (GeneID 33649)	DRSC00448	-0.48	-0.16			
CG13891 (GeneID 38066)	DRSC08361	0.4	0.21			
CG4752 (GeneID 37569)	DRSC04486	0.35	0.5			
Eglp3 (GeneID 37738)	DRSC04293	0.13	0.25			
Rab35 (GeneID 33014)	DRSC20691	-1.06	-1			
Hdc (GeneID 36076)	DRSC07439	0.25	0.3			
CG3708 (GeneID 31039)	DRSC18646	0.51	0.46			
CG5823 (GeneID 42105)	DRSC15881	0.29	0.18			
Osi13 (GeneID 40769)	DRSC12281	0.43	0.04			
Smyd4-2 (GeneID 39414)	DRSC10126	0.32	-0.02			
CG2260 (GeneID 31732)	DRSC18223	-0.02	0.18			
Srp54k (GeneID 38593)	DRSC11289	-3.35	-0.51			reduced secretion
S-Lap7 (GeneID 36524)	DRSC06374	0.23	0.26			
CG2611 (GeneID 35324)	DRSC02710	0.34	0.15			
CG15221 (GeneID 32127)	DRSC19659	0.35	0.29			
Np (GeneID 35904)	DRSC06089	0.41	0.42			
Np (GeneID 35904)	DRSC07094	0.02	0.06			
Np (GeneID 35904)	DRSC22421	-0.03	0.29			
Orco (GeneID 40650)	DRSC12358	0.24	0.58			
Sf3a2 (GeneID 39456)	DRSC09801	-2.49	-0.32			reduced secretion
PRL-1 (GeneID 34952)	DRSC03393	-0.48	0.25			
apt (GeneID 37734)	DRSC04671	0.61	0.2			
lncRNA:sphinx (GeneID 4379815)	DRSC17199	-0.04	-0.24			
CG17111 (GeneID 42727)	DRSC15174	0.2	0.22			
CG14566 (GeneID 40421)	DRSC11727	0.13	0.35			
CG18581 (GeneID 39633)	DRSC10324	0.01	0.06			
Cpr65Au (GeneID 59158)	DRSC22738	-0.09	-0.21			
RpL24-like (GeneID 41372)	DRSC16111	-0.36	-1.15			
